Results deposited as PubChem BioAssay AID1259254 (NCATS, 2017)
The deposit covers about 59,000 reagents; this is a part drawn at random. Over the whole deposit, about 1,550 (2.6%) got an active call. 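G2 share is only a proxy for re-replication; each gene was hit by three separate siRNAs, and active genes were retested.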 The numbers tell different reagents against one gene apart. Further read-outs or replicates are left out here. The record does not give: the amount of reagent.

Aim: 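Finding genes that stop cells copying their DNA twice in one cycle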 (primary screen)
Cells: human HCT116 colorectal cancer cells
Reagents: single siRNA against human genes
Duration: 3 days
Read-out: 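Nuclei stained with Hoechst and imaged; cell-cycle phase assigned by DNA content; G2 share scaled per plate, non-targeting siRNA 0%, GMNN siRNA 100%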
Scale: G2 robust z-score and G2 cells, % of GMNN control: higher = more G2 cells, more excess DNA replication
Hit rule: 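Active siRNAs have a G2 robust z of 5 or more median absolute deviations over the median, which in these data means about 38% or higher of GMNN control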

TP53INP1 #1
- G2 robust z-score: 0.6
- G2 cells, % of GMNN control: 7.19
- Call: inactive

TP53INP1 #2
- G2 robust z-score: -0.647
- G2 cells, % of GMNN control: -1.59
- Call: inactive

TP53INP1 #3
- G2 robust z-score: 0.625
- G2 cells, % of GMNN control: 7.37
- Call: inactive

FOXJ1 #1
- G2 robust z-score: -1.47
- G2 cells, % of GMNN control: -7.41
- Call: inactive

FOXJ1 #2
- G2 robust z-score: 0.125
- G2 cells, % of GMNN control: 3.85
- Call: inactive

FOXJ1 #3
- G2 robust z-score: -0.168
- G2 cells, % of GMNN control: 1.79
- Call: inactive

ADH4 #1
- G2 robust z-score: -0.531
- G2 cells, % of GMNN control: -0.767
- Call: inactive

ADH4 #2
- G2 robust z-score: 1.91
- G2 cells, % of GMNN control: 16.4
- Call: inactive

ADH4 #3
- G2 robust z-score: -0.88
- G2 cells, % of GMNN control: -3.23
- Call: inactive

PGLYRP3 #1
- G2 robust z-score: -0.911
- G2 cells, % of GMNN control: -3.44
- Call: inactive

PGLYRP3 #2
- G2 robust z-score: -0.159
- G2 cells, % of GMNN control: 1.85
- Call: inactive

PGLYRP3 #3
- G2 robust z-score: 5.08
- G2 cells, % of GMNN control: 38.7
- Call: active

NTN5 #1
- G2 robust z-score: -0.654
- G2 cells, % of GMNN control: -1.63
- Call: inactive

NTN5 #2
- G2 robust z-score: -0.543
- G2 cells, % of GMNN control: -0.855
- Call: inactive

NTN5 #3
- G2 robust z-score: 1.06
- G2 cells, % of GMNN control: 10.4
- Call: inactive

TINAGL1 #1
- G2 robust z-score: -0.173
- G2 cells, % of GMNN control: 1.75
- Call: inactive

TINAGL1 #2
- G2 robust z-score: 1.16
- G2 cells, % of GMNN control: 11.1
- Call: inactive

TINAGL1 #3
- G2 robust z-score: 0.876
- G2 cells, % of GMNN control: 9.13
- Call: inactive

Records above whose gene name starts with F or f:
FOXJ1 #1
- G2 robust z-score: -1.47
- G2 cells, % of GMNN control: -7.41
- Call: inactive

FOXJ1 #2
- G2 robust z-score: 0.125
- G2 cells, % of GMNN control: 3.85
- Call: inactive

FOXJ1 #3
- G2 robust z-score: -0.168
- G2 cells, % of GMNN control: 1.79
- Call: inactive
